Measured values as given in US6891027.
No constants are given. Whether binding was seen depends on the method and setting. Some entries that bind do so weakly or less than the wild type.

Sequences of proteins named here, by UniProt entry; tags and fusion partners are left off. Residues count along the entry.
UniProt P20023, residues 21-1033: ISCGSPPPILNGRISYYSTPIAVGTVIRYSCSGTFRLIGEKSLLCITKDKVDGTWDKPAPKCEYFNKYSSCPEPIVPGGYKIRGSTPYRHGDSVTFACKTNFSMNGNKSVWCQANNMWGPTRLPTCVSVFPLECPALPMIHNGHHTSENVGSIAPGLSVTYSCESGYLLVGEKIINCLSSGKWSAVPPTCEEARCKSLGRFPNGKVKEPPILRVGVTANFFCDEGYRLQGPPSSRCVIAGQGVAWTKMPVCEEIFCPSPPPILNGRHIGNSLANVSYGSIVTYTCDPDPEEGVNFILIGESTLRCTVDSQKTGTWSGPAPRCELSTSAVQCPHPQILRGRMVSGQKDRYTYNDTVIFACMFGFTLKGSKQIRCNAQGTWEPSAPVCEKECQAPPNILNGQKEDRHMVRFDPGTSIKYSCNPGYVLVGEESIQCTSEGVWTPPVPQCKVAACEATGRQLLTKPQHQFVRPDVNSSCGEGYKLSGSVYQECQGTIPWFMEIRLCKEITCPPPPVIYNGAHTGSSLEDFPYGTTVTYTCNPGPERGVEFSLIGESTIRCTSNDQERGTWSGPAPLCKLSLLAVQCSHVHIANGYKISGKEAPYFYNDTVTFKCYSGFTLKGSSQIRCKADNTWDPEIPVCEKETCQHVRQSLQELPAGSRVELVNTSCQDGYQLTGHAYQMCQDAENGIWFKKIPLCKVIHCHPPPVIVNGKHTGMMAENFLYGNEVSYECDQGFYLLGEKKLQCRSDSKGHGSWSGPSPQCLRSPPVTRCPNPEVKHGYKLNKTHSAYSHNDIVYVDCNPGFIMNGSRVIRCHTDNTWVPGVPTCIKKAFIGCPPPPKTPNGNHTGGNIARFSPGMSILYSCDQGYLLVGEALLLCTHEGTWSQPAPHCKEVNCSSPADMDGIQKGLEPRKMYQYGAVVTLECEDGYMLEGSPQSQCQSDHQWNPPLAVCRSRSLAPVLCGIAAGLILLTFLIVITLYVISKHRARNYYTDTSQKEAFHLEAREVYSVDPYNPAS
UniProt P01027, residues 1006-1302: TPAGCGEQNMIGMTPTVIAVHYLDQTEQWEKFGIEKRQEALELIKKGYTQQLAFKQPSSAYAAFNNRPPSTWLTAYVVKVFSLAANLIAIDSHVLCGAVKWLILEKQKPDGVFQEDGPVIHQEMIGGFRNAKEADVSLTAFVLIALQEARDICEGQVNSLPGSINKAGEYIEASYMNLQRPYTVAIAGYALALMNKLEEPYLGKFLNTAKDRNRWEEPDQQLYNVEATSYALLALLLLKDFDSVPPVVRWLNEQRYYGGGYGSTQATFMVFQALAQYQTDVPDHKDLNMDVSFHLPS

Molecular target: CD21 on Raji B lymphoblastoid cells (human) (UniProt P20023)
Assay: summary of the Raji cell binding experiments of the filing

## mouse C3d (from UniProt P01027 1006-1302) (ligand)
  binding: binds
